From patent US5498695A, “Paranitroaniline peptides” (Pfizer Inc., priority 1994, dated 1996)
Part of at least one peptide drawing is inferred or uncertain, most often the ends. Where no end group is shown, it is not given here.

Molecular target: T1, interleukin 1β converting enzyme (ICE) (Homo sapiens, UniProt P29466)
T1 construct: ICE activity was purified from THP-1 cell lysates by three chromatographic steps; endogenous in cells; host or cells: THP-1 (ATCC-TIB 202) human monocyte cell line; Lysate was purified over G25, Q-Sepharose and MonoQ, then captured on protein A agarose beads carrying anti-ICE antibody
T1 sequence (P29466 120-297 limits assumed): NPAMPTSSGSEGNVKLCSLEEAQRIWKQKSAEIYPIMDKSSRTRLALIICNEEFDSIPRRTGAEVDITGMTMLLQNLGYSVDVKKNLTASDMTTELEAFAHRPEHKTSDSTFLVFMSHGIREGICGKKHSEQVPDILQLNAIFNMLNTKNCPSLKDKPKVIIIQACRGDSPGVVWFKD
T1 sequence (P29466 317-404 limits assumed): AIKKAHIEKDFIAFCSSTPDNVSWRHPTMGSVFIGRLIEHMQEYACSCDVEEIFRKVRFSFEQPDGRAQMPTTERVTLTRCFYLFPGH
Assay: Inhibition of ICE hydrolysis of CBZ-Val-Ala-Asp-pNA
Type: biochemical
Details: affecting Km but not Vmax
Procedure: Other procedures for purification and assaying ICE are disclosed in Black et al., FEBS Letters, 247, 386-390 (1989), and Thornberry et al., Nature, 356, 768-774 (1992). Cell Culture And Lysates.
Human monocyte cell line, THP-1 (ATCC-TIB 202) was grown in RPMI media 1640 (Gibco BRL Gaithersburg, Md. 20877) with 10% fetal bovine serum, harvested by centrifugation, washed twice in Dulbecco's PBS […] without Ca^++, and resuspended in 10 mM Tris-HCl pH 8 buffer containing 5 mM DTT (dithiothreitol), 1 mM EDTA (ethylene diamine tetraacetic acid), 1 mM PMSF (phenylmethyl sulfonylfluoride), 1 μg/ml pepstatin, and 1 μg/ml leupeptin at 1-3×10^8 cells per ml. Cells were frozen at -70° C. until use and then lysed by thawing. Lysates were cleared by centrifugation at 20,000× g for 1 hour followed by 120,000×g for 1 hour. […]
The enzymatic reaction was monitored spectrophotometrically at […]. The increase in absorbance at this wave length resulted from the release of pNA chromophore after hydrolysis by ICE of the peptidic-pNA substrate. […]

**Q.** Which type of inhibition does the source give for “H-NEAYVHDAPVRSLN [p70, H-Asn-Glu-Ala-Tyr-Val-His-Asp-Ala-Pro-Val-Arg-Ser-Leu-Asn]” here?
**A.** competitive inhibitors
